PubChem BioAssay AID504808, Drosophila RNAi Screening Center, 2011
The screen tested about 21,000 reagents; below is an unselected part of those that have a named target and a result. In the full data, 18 (0.084%) got an active call. 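Raw counts without plate normalisation, one of two replicates; the ratio scores behind the calls were not deposited.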 Names joined by + are all predicted targets of the reagent. Not given: the amount of reagent, the time to read-out.

- Purpose: 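Chromatin factors that keep E2F targets switched off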 (primary screen)
- Cell system: Drosophila S2 cells
- Reagents: long dsRNA against Drosophila genes
- Detection: 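Firefly luciferase driven by E2F sites, normalised to Renilla luciferase on the same minimal promoter, measured by plate reader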
- Scale: E2F firefly: higher = more E2F reporter activity; Renilla normaliser: higher = more normaliser reporter signal
- Call rule: 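Called active if the normalised E2F reporter went up by over 50%; the cutoff is arbitrary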

target gene | dsRNA | E2F firefly, rep 1 | Renilla normaliser, rep 1 | call
CG34148 + P5CDh2 | DRSC13519 | 93686 | 2121 | inactive
CG15701 | DRSC06572 | 1.64e5 | 5078 | inactive
Gad1 (Glutamic acid decarboxylase 1) | DRSC08661 | 71286 | 3832 | inactive
Cngl (Cyclic nucleotide-gated ion channel-like) | DRSC20318 | 1.38e5 | 5551 | inactive
Ephrin | DRSC17165 | 1.24e5 | 6132 | inactive
gsb (gooseberry) | DRSC04692 | 1.28e5 | 4852 | inactive
Spt-I (Serine palmitoyltransferase subunit I) | DRSC06860 | 94425 | 4258 | inactive
DZIP1 | DRSC14620 | 1.13e5 | 5054 | inactive
CG32564 | DRSC19933 | 1.59e5 | 7971 | inactive
CG14949 | DRSC08408 | 1.01e5 | 3960 | inactive
PCNA (Proliferating cell nuclear antigen) | DRSC07653 | 72455 | 3084 | inactive
PCNA2 (Proliferating cell nuclear antigen 2) | DRSC02030 | 1.06e5 | 4283 | inactive
fng (fringe) | DRSC11455 | 83425 | 3600 | inactive
fng (fringe) | DRSC11887 | 78844 | 3330 | inactive
S2P (site-2 protease) | DRSC07311 | 94590 | 4143 | inactive
beat-Ic (beaten path Ic) | DRSC01524 | 1.25e5 | 6239 | inactive
beat-Ic (beaten path Ic) | DRSC03491 | 1.02e5 | 4614 | inactive
AP-2mu (Adaptor Protein complex 2, mu subunit) | DRSC14090 | 59934 | 3073 | inactive
Rph (Rabphilin) | DRSC17790 | 50076 | 3778 | inactive
Mipp1 (Multiple inositol polyphosphate phosphatase 1) | DRSC11223 | 78015 | 3373 | inactive
hb (hunchback) | DRSC16963 | 77397 | 4084 | inactive
wrm1 (wurmchen 1) | DRSC11007 | 61383 | 3038 | inactive
CG15643 | DRSC19679 | 2.39e5 | 7477 | inactive
CG9672 | DRSC20201 | 1.76e5 | 6221 | inactive
salto | DRSC06291 | 2764 | 198 | inactive
CG6125 | DRSC15970 | 1.01e5 | 5247 | inactive
MED21 (Mediator complex subunit 21) | DRSC20932 | 1.32e5 | 6213 | inactive
l(2)09851 (lethal (2) 09851) | DRSC04858 | 1.13e5 | 4277 | inactive
CG10265 | DRSC05986 | 3264 | 193 | inactive
bdwf (bedwarfed) | DRSC15532 | 68522 | 3539 | inactive
CCT7 (Chaperonin containing TCP1 subunit 7) | DRSC16410 | 1.25e5 | 7747 | inactive
Roc1a (Regulator of cullins 1a) | DRSC18483 | 95794 | 7080 | inactive
CG7326 | DRSC20037 | 1.44e5 | 5816 | inactive
CG12321 | DRSC14499 | 66963 | 2990 | inactive
mRF1 (mitochondrial translation release factor 1) | DRSC02880 | 97903 | 3321 | inactive
Pcp (Pupal cuticle protein) | DRSC03395 | 1.49e5 | 5673 | inactive
eEF5 (eukaryotic translation elongation factor 5) | DRSC04681 | 1.08e5 | 4362 | inactive
CG15382 | DRSC00397 | 1.57e5 | 5460 | inactive
Spn77Ba (Serpin 77Ba) | DRSC10693 | 81018 | 3788 | inactive
CG11379 | DRSC18629 | 52090 | 3120 | inactive
Noc2 (Nucleolar complex protein 2) | DRSC03165 | 74483 | 3927 | inactive
CG4282 | DRSC06865 | 80366 | 3708 | inactive
Mgat2 | DRSC16347 | 1623 | 952 | inactive
yellow-f2 | DRSC16372 | 77957 | 3395 | inactive
Mondo | DRSC02667 | 76827 | 3350 | inactive
Mondo | DRSC02668 | 95535 | 3724 | inactive
aPKC (atypical protein kinase C) | DRSC05515 | 1.34e5 | 4700 | inactive
aPKC (atypical protein kinase C) | DRSC07639 | 97367 | 4140 | inactive
CG10911 | DRSC06008 | 1.51e5 | 5184 | inactive
CG5292 | DRSC15763 | 1.22e5 | 6735 | inactive
nolo (no long nerve cord) | DRSC03705 | 80329 | 3618 | inactive
nolo (no long nerve cord) | DRSC03719 | 1.03e5 | 4268 | inactive
nolo (no long nerve cord) | DRSC03720 | 1.17e5 | 4530 | inactive
RpS6 (Ribosomal protein S6) | DRSC18712 | 6111 | 832 | inactive
CG3529 | DRSC10369 | 70044 | 3970 | inactive
CR16735 (pseudo) | DRSC15144 | 1.22e5 | 5254 | inactive
eIF3g2 (eukaryotic translation initiation factor 3 subunit g2) | DRSC14275 | 1.15e5 | 7678 | inactive
CG13126 | DRSC02222 | 1.61e5 | 5255 | inactive
CG13970 | DRSC02311 | 99762 | 4447 | inactive
CR18275 + CR18166 + CG32817 | DRSC17249 | 70929 | 2350 | inactive
AIF (Apoptosis inducing factor) | DRSC00696 | 83129 | 3360 | inactive
Sap30 (SIN3-associated polypeptide 30) | DRSC19916 | 2.38e5 | 6600 | inactive
Papst2 (PAPS transporter 2) | DRSC10924 | 84398 | 3669 | inactive
subdued | DRSC15137 | 71579 | 4236 | inactive
CG13653 | DRSC14653 | 1.08e5 | 6284 | inactive
CG9864 | DRSC07346 | 1.34e5 | 5061 | inactive
CG1572 | DRSC19686 | 7900 | 780 | inactive
Adi1 (Acireductone dioxygenase 1) | DRSC10945 | 1.21e5 | 6347 | inactive
CG11426 | DRSC11658 | 1.16e5 | 5435 | inactive
CG15356 | DRSC00386 | 1.72e5 | 6623 | inactive
sit (stuck in traffic) | DRSC15760 | 90428 | 5984 | inactive
CG13984 | DRSC02316 | 1.49e5 | 4733 | inactive
CG33309 | DRSC01421 | 1.28e5 | 6001 | inactive
sstn (stepping stone) | DRSC10753 | 1.48e5 | 6989 | inactive
CG31013 | DRSC16542 | 1.27e5 | 6453 | inactive
dyl (dusky-like) | DRSC08466 | 63760 | 3792 | inactive
dyl (dusky-like) | DRSC08467 | 85496 | 3454 | inactive
CG9886 | DRSC00732 | 84251 | 3459 | inactive
Alg13 (Alg13 UDP-N-acetylglucosaminyltransferase subunit) | DRSC14864 | 1.13e5 | 5975 | inactive
Br140 (Bromodomain-containing protein, 140kD) | DRSC06755 | 92136 | 3489 | inactive
dve (defective proventriculus) | DRSC04680 | 99749 | 4013 | inactive
Acbp1 (Acyl-CoA binding protein 1) | DRSC03093 | 1.57e5 | 5578 | inactive
CG12402 | DRSC14508 | 1.05e5 | 5950 | inactive
CG8245 | DRSC04901 | 1.15e5 | 4783 | inactive

Copied from the list:
Result of bdwf (bedwarfed) [DRSC15532] in “call”: inactive
Entry for CR16735 (pseudo) [DRSC15144] under “call”: inactive
Value of sstn (stepping stone) [DRSC10753] under “E2F firefly, rep 1”: 1.48e5
Under “E2F firefly, rep 1”, Cngl (Cyclic nucleotide-gated ion channel-like) [DRSC20318] reads 1.38e5
CR18275 + CR18166 + CG32817 [DRSC17249], Renilla normaliser, rep 1: 2350
dyl (dusky-like) [DRSC08467], call: inactive
